PMC11046469, “Leveraging a Phage-Encoded Noncanonical Amino Acid: A Novel Pathway to Potent and Selective Epigenetic Reader Protein Inhibitors” (ACS Central Science, 2024)
Results are given in words; binding and its absence hold for the method and conditions named. Sequences can lack the tags named with a protein.

Target: T1, 6xHis-tagged ENL YEATS domain (human, UniProt Q03111 1-148)
T1 chain: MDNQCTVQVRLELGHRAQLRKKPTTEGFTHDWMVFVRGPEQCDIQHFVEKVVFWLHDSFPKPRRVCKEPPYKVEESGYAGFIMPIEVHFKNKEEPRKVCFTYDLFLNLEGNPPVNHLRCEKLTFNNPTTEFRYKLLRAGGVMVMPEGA
Assay: AlphaScreen or HTRF; competition: biotinylated H3K27cr peptide on streptavidin donor beads, His-ENL YEATS on nickel-chelating (Ni-NTA) acceptor beads; test peptide varied; n = 3; both purified

binding: no binding
Binder: YDVYCYA [ENL-S1 with BuK replaced by alanine]
